The results in this text go back to publication doi:10.1101/668798.

Amino acid sequences for entries named in this document (tags omitted).
UniProt P25694: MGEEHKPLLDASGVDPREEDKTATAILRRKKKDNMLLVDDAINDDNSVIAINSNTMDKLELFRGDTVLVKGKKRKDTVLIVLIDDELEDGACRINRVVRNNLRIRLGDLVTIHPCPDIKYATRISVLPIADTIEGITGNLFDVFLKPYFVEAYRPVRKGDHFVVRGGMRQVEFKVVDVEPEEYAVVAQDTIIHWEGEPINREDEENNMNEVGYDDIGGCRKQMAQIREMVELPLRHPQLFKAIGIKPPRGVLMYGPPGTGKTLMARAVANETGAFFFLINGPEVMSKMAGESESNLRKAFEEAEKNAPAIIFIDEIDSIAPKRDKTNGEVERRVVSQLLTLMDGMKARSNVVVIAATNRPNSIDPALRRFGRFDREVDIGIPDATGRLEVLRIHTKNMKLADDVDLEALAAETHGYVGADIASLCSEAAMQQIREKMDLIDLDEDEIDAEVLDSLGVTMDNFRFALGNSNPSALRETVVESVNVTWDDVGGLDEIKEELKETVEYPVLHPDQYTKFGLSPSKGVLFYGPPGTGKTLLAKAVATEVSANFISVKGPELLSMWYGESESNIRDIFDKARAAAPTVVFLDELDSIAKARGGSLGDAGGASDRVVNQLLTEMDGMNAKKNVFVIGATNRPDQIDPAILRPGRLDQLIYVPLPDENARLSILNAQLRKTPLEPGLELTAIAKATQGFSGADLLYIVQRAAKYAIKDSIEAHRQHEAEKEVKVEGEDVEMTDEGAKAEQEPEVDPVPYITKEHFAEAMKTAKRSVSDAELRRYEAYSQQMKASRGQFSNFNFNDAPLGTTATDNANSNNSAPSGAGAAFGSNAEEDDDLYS
UniProt Q13148: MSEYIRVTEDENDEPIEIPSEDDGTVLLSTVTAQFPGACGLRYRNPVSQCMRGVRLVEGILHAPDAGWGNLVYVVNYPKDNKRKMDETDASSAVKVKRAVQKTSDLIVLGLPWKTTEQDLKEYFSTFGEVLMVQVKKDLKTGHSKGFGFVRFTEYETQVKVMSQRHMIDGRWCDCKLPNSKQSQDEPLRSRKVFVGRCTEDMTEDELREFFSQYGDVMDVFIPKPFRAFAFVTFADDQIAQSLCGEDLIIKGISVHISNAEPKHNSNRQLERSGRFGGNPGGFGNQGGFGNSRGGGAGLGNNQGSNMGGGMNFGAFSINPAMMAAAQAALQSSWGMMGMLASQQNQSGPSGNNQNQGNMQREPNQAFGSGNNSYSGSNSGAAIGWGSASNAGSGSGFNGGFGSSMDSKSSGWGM
UniProt P04147: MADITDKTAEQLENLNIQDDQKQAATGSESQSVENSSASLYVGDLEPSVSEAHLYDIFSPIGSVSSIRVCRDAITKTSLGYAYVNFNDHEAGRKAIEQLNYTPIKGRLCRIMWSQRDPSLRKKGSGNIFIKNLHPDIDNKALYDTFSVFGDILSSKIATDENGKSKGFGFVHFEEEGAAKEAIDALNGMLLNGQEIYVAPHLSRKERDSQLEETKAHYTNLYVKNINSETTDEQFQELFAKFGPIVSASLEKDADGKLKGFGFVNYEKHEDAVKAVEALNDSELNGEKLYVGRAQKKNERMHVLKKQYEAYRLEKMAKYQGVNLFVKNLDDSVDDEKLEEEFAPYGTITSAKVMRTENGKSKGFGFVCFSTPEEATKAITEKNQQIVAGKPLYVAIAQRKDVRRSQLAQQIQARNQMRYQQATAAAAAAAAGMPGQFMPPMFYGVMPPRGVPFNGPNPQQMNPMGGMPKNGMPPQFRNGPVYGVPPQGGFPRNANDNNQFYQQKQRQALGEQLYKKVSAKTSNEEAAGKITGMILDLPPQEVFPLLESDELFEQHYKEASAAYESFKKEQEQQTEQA

These are yes or no findings as the source states them, for the method shown. In cells and extracts the contact can be indirect. Some entries that bind do so weakly or less than the wild type.

In assay [1] the target is Cdc48-TAP (S. cerevisiae) (UniProt P25694). Briefly: co-IP.
A further assay concerns the target TDP-43-YFP (UniProt Q13148). The assay is described as follows: co-IP.

Regarding Pab1-GFP (from UniProt P04147 1-577), in assay [1], the binding entry is listed as “binds”.

With TDP-43-YFP (from UniProt Q13148 1-414), the binding entry in assay [1] is recorded as “binds”.

On to Cdc48-TAP (from UniProt P25694 1-835), for which the binding result with TDP-43-YFP is reported as “binds”.
